PubChem BioAssay AID248 (DTP/NCI, 2004)
The list is a part of this screen's results and no random one: it is rich in T/C values a quarter to a half above the control, in often repeated tests (any T/C) and in doses without a T/C. Further doses and runs are listed elsewhere. T/C: endpoint of the treated group in % of that of the vehicle group. Some doses have a count of surviving animals in place of a T/C: the source holds a T/C of zero for them, seemingly a mark for toxic or unscored doses. Some doses without a T/C left all or most animals alive at the check, yet need not have been tolerated: the source hardly ever lists a survival T/C far under the control, and the zero likely stands for such cases as well. Counts of survivors are from the toxicity check (mostly the fifth day) where no day follows; animals may have died later. Schedules are NCI's codes, read here as Q, the interval in days (D) or hours (H), X, the number of doses. Some doses were run more than once; the values are given in rising order. Some schedules carry Z or #; the key to these is not given. Some molecules as drawn cover several salts, stereoisomers or complexes of the source; a dose is that of the sample tested. For survival time, the PubChem record calls one and a half times the control and up active, and a quarter to a half above the control has no call in these data; cut-offs in other NCI protocols can differ. Some T/C values are followed by the survivors on the day toxicity was checked, most often the fifth; without a count, all were alive then.

System: L1210 leukemia ip in BDF1 mice, survival T/C
Test: NCI In Vivo Anticancer Drug Screen. Data for tumor model L1210 Leukemia (intraperitoneal) in B6D2F1 (BDF1) mice
Settings: T/C endpoint: mean survival time, higher T/C = longer survival
[1] = dose: 200.0 mg/kg/injection, schedule: Q04DX003 (ip), vehicle: saline
[2] = dose: 400.0 mg/kg/injection, schedule: Q04DX003 (ip), vehicle: saline
[3] = dose: 100.0 mg/kg/injection, schedule: Q04DX002 (ip), vehicle: saline with Tween-80
[4] = dose: 200.0 mg/kg/injection, schedule: Q04DX002 (ip), vehicle: saline with Tween-80
[5] = dose: 400.0 mg/kg/injection, schedule: Q04DX002 (ip), vehicle: saline with Tween-80
[6] = dose: 300.0 mg/kg/injection, schedule: Q01DX001 (ip), vehicle: carboxymethylcellulose (CMC)
[7] = dose: 200.0 mg/kg/injection, schedule: Q04DX003 (ip), vehicle: Klucel (hydroxypropylcellulose) (HPC)
[8] = dose: 100.0 mg/kg/injection, schedule: Q01DX009 (ip), vehicle: saline
[9] = dose: 200.0 mg/kg/injection, schedule: Q01DX009 (ip), vehicle: saline
[10] = dose: 400.0 mg/kg/injection, schedule: Q01DX009 (ip), vehicle: saline
[11] = dose: 200.0 mg/kg/injection, schedule: Q04DX002 (ip), vehicle: Klucel (hydroxypropylcellulose) (HPC)
[12] = dose: 400.0 mg/kg/injection, schedule: Q01DX001 (ip), vehicle: saline
[13] = dose: 400.0 mg/kg/injection, schedule: Q01DX009 (ip), vehicle: Klucel (hydroxypropylcellulose) (HPC)
[14] = dose: 400.0 mg/kg/injection, schedule: Q01DX009 (ip), vehicle: saline with Tween-80
[15] = dose: 200.0 mg/kg/injection, schedule: Q01DX001 (ip), vehicle: saline

CN1CN(C)CN(C)C1
survivor count (dose: 25.0 mg/kg/injection, schedule: Q04DX003 (ip), vehicle: saline): 3 of 6
survivor count [1]: 2 of 6
survivor count [2]: 0 of 6

C=CCC(Cc1ccccc1)NCC1CC1 (stereo not given)
survivor count [3]: 0 of 3
survivor count [4]: 0 of 3
survivor count [5]: 0 of 3

COc1c2ccoc2cc2oc(C)cc(=O)c12
survivor count [6]: 0 of 4

Cc1ccc(O)c(C(c2cc(S(=O)(=O)O)c(O)cc2C)N2CN(C(c3cc(S(=O)(=O)O)c(O)cc3C)c3cc(C)ccc3O)C2=O)c1 (stereo not given)
survivor count [5]: 0 of 3

CCCCN(C)CCNc1cc(C)nc(/N=C(\N)Nc2ccc(Cl)c(Cl)c2)n1
survivor count (dose: 75.0 mg/kg/injection, schedule: Q01DX009 (ip), vehicle: Klucel (hydroxypropylcellulose) (HPC)): 2 of 6

O=[N+]([O-])c1cc(S(=O)(=O)c2ccc(O)c([N+](=O)[O-])c2)ccc1O
survivor count (dose: 200.0 mg/kg/injection, schedule: Q04DX002 (ip), vehicle: saline): 2 of 3
survivor count (dose: 400.0 mg/kg/injection, schedule: Q04DX002 (ip), vehicle: saline): 1 of 3

NC(CCSCc1ccc(N(CCCl)CCCl)cc1)C(=O)O (stereo not given)
T/C (dose: 6.0 mg/kg/injection, schedule: Q01DX Z (ip), vehicle: saline): 130 % of control
T/C (dose: 12.0 mg/kg/injection, schedule: Q01DX Z (ip), vehicle: saline): 133 % of control
T/C (dose: 21.0 mg/kg/injection, schedule: Q01DX009 (ip), vehicle: carboxymethylcellulose (CMC)): 143 % of control
T/C (dose: 36.0 mg/kg/injection, schedule: Q01DX009 (ip), vehicle: carboxymethylcellulose (CMC)): 147 % of control
T/C (dose: 36.0 mg/kg/injection, schedule: Q01DX Z (ip), vehicle: saline): 136 % of control
T/C (dose: 60.0 mg/kg/injection, schedule: Q01DX009 (ip), vehicle: carboxymethylcellulose (CMC)): 125 % of control
survivor count (dose: 100.0 mg/kg/injection, schedule: Q01DX009 (ip), vehicle: carboxymethylcellulose (CMC)): 6 of 6
survivor count (dose: 108.0 mg/kg/injection, schedule: Q01DX Z (ip), vehicle: saline): 6 of 6

CN(CC(O)COc1ccccc1)CC1CCCO1 (stereo not given)
survivor count [7]: 2 of 6
survivor count (dose: 400.0 mg/kg/injection, schedule: Q04DX003 (ip), vehicle: Klucel (hydroxypropylcellulose) (HPC)): 0 of 6

O=C(O)COc1c(Cl)cc(Cl)c2cccnc12
survivor count (dose: 400.0 mg/kg/injection, schedule: Q01DX001 (ip), vehicle: carboxymethylcellulose (CMC)): 1 of 4

O=C(O)[C@@H]1C[C@H]1c1ccccc1
survivor count [4]: 3 of 3
survivor count [5]: 3 of 3

Nc1nc(SCCc2ccccc2)c2[nH]cnc2n1
T/C (dose: 300.0 mg/kg/injection, schedule: Q01DX Z (ip), vehicle: carboxymethylcellulose (CMC)): 130 % of control
T/C (dose: 450.0 mg/kg/injection, schedule: Q01DX Z (ip), vehicle: carboxymethylcellulose (CMC)): 134 % of control
T/C (dose: 675.0 mg/kg/injection, schedule: Q01DX Z (ip), vehicle: carboxymethylcellulose (CMC)): 125 % of control

Nc1ccc(C(=O)OCCCN2CCCCC2)cc1
survivor count [8]: 0 of 6
survivor count [9]: 0 of 6
survivor count [10]: 0 of 6

COc1ccc(OC(=O)Nc2ccccc2C)cc1
T/C [11]: 134 % of control

Clc1ncnc2c1ncn2C1CCCCO1 (stereo not given)
T/C (dose: 125.0 mg/kg/injection, schedule: Q01DX Z (ip), vehicle: other): 129 % of control
T/C (dose: 250.0 mg/kg/injection, schedule: Q01DX Z (ip), vehicle: other): 129 % of control

Cc1cc(C)c(C(=O)OC(C)CNC2CCCCC2)c(C)c1 (stereo not given)
survivor count [6]: 0 of 6

CCCCCOC(CN)C(Cl)(Cl)Cl (stereo not given)
survivor count [8]: 4 of 6
survivor count [1]: 0 of 6
survivor count [2]: 0 of 6

NC(=O)c1cccn1-c1cccc2c(-n3cccc3C(N)=O)cccc12
survivor count [3]: 2 of 3
survivor count [4]: 2 of 3

O=C(NO)c1ccccc1
survivor count (dose: 200.0 mg/kg/injection, schedule: Q03HX032 (ip), vehicle: saline): 7 of 10
T/C (dose: 266.0 mg/kg/injection, schedule: Q01DX009 (ip), vehicle: saline): 128 % of control [5 of 6 alive]
survivor count (dose: 300.0 mg/kg/injection, schedule: Q03HX032 (ip), vehicle: saline): 3 of 10
survivor count [12]: 1 of 3
T/C [13]: 128 % of control [7 of 8 alive]
T/C (dose: 400.0 mg/kg/injection, schedule: Q01DX009 (ip), vehicle: acetone): 147 % of control
T/C [14]: 147 % of control [4 of 6 alive]
survivor count [14]: 3 of 6
T/C [10]: 136 [4 of 6 alive] and 139 % of control
T/C [2]: 125 % of control
survivor count (dose: 450.0 mg/kg/injection, schedule: Q03HX032 (ip), vehicle: saline): 0 of 10
T/C (dose: 600.0 mg/kg/injection, schedule: Q01DX009 (ip), vehicle: saline with Tween-80): 129 % of control
T/C (dose: 670.0 mg/kg/injection, schedule: Q01DX015 (ip), vehicle: saline): 130 % of control [9 of 10 alive]
survivor count (dose: 800.0 mg/kg/injection, schedule: Q01DX009 (ip), vehicle: Klucel (hydroxypropylcellulose) (HPC)): 1 of 8

c1ccc(-c2cc3ccccc3[nH]2)cc1
survivor count (dose: 100.0 mg/kg/injection, schedule: Q01DX009 (ip), vehicle: Klucel (hydroxypropylcellulose) (HPC)): 6 of 6
survivor count [13]: 3 of 6

O=C1CC(c2ccccc2)NN1c1ccccc1 (stereo not given)
survivor count [3]: 3 of 3
survivor count (dose: 200.0 mg/kg/injection, schedule: Q01DX009 (ip), vehicle: saline with Tween-80): 5 of 6 and 3 of 3
survivor count [4]: 3 of 3
survivor count [5]: 3 of 3

CCOC(=O)CCc1c(C)[nH]c(C(=O)OCC)c1C
survivor count (dose: 50.0 mg/kg/injection, schedule: Q04DX003 (ip), vehicle: Klucel (hydroxypropylcellulose) (HPC)): 0 of 6
survivor count (dose: 100.0 mg/kg/injection, schedule: Q04DX003 (ip), vehicle: Klucel (hydroxypropylcellulose) (HPC)): 0 of 6
survivor count [7]: 0 of 6 and 6 of 6

CC(C)(C)c1ccc(O)c([N+](=O)[O-])c1
survivor count [11]: 3 of 3
survivor count (dose: 400.0 mg/kg/injection, schedule: Q04DX002 (ip), vehicle: Klucel (hydroxypropylcellulose) (HPC)): 3 of 3

O=C(Nc1cc(Cl)cc2c1-c1c(Cl)cc(Cl)cc1C2)C(Cl)Cl
survivor count (dose: 200.0 mg/kg/injection, schedule: Q01DX009 (ip), vehicle: Klucel (hydroxypropylcellulose) (HPC)): 1 of 6
survivor count [13]: 0 of 6

CCCCCCN(CCCCCC)C(C)=O
survivor count (dose: 400.0 mg/kg/injection, schedule: Q01DX001 (ip), vehicle: other): 1 of 6

CCN1CCc2ccccc2C1c1ccccc1 (stereo not given)
survivor count [9]: 1 of 6
survivor count [10]: 0 of 6

C[N+](C)(C)C1(c2ccc(F)cc2)CCCCC1
survivor count (dose: 40.0 mg/kg/injection, schedule: Q01DX001 (ip), vehicle: saline): 0 of 4
survivor count (dose: 50.0 mg/kg/injection, schedule: Q01DX001 (ip), vehicle: saline): 0 of 4
survivor count (dose: 80.0 mg/kg/injection, schedule: Q01DX001 (ip), vehicle: saline): 0 of 4
survivor count (dose: 100.0 mg/kg/injection, schedule: Q01DX001 (ip), vehicle: saline): 0 of 4
survivor count [15]: 0 of 4
survivor count [12]: 0 of 4

CC1(C)OCC(=NNC(N)=O)CO1
survivor count [9]: 0 of 6
survivor count [2]: 1 of 6

COc1cc(Br)c2c(c1OC)C1(CC[N+](C)(C)C)CC(=O)CCC1CC2 (stereo not given)
survivor count [15]: 0 of 6
survivor count [12]: 0 of 6

COc1ccc(C(=O)C[N+](=O)[O-])cc1
survivor count [14]: 3 of 6
